PubChem BioAssay AID1224830 | NIAID | 2016
This is a random part of about 18,000 reagents tested. In the full data, about 2,900 (16%) are marked active. 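Calls are made per well; low scores hint the gene aids the LPS response, high scores that it dampens it.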 Entries without a mark were called inactive. Repeated entries: four replicate wells of each siRNA pool.

Screen: 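Host factors that control LPS-induced TNF expression in human macrophages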 (primary screen)
Cell system: human THP-1 monocytic leukaemia cells, TNF dual-luciferase reporter clone, PMA-differentiated to macrophage-like cells
Reagent: siRNA pool against human genes, 50 nM
Duration: LPS for 4 h, given about 3 days after siRNA transfection
Challenge: bacterial LPS (TLR4 ligand), 10 ng/ml
Read-out: 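TNF firefly reporter luminescence divided by renilla, normalised to the plate median, then turned into a robust z-score for each replicate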
Reading the numbers: TNF reporter robust z-score: higher = stronger TNF reporter response to LPS
Active means: 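a well is active when its z-score exceeds 2.8 or falls below -1.5; control wells carry no call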

| target | TNF reporter robust z-score |
| --- | --- |
| SOX2 | 0.33 |
| SOX2 | 0.74 |
| SOX2 | 0.58 |
| SOX2 | 0.72 |
| GUCY1A1 | 0.3 |
| GUCY1A1 | -1.1 |
| GUCY1A1 | 0.4 |
| GUCY1A1 | -0.42 |
| ZDHHC17 | -1.53 (active) |
| ZDHHC17 | -0.81 |
| ZDHHC17 | -0.95 |
| ZDHHC17 | -0.86 |
| LAMC1 | -0.48 |
| LAMC1 | -0.51 |
| LAMC1 | -0.46 |
| LAMC1 | -0.25 |
| COX18 | -1.31 |
| COX18 | -0.77 |
| COX18 | -0.76 |
| COX18 | -0.44 |
| DYRK1A | 0.06 |
| DYRK1A | -0.28 |
| DYRK1A | -0.91 |
| DYRK1A | -0.77 |
| PIK3R2 | -0.65 |
| PIK3R2 | 0.65 |
| PIK3R2 | -1 |
| PIK3R2 | -1.12 |
| CAPN6 | -0.8 |
| CAPN6 | -0.22 |
| CAPN6 | -0.74 |
| CAPN6 | 0.09 |
| CSRNP3 | -0.36 |
| CSRNP3 | -0.67 |
| CSRNP3 | 0.06 |
| CSRNP3 | -1.43 |
| TTLL7 | -0.03 |
| TTLL7 | 0.48 |
| TTLL7 | 1.56 |
| TTLL7 | 2.5 |
| PINX1 | -0.33 |
| PINX1 | -0.64 |
| PINX1 | -0.47 |
| LRRC3 | -0.83 |
| LRRC3 | -0.12 |
| LRRC3 | -0.62 |
| LRRC3 | -0.49 |

Copied from above (4 entries):
| target | TNF reporter robust z-score |
| --- | --- |
| LAMC1 | -0.46 |
| LAMC1 | -0.25 |
| COX18 | -1.31 |
| COX18 | -0.77 |
